PubChem BioAssay AID743454 | Peter MacCallum Cancer Centre – 2014
Aim: 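Knock-downs lowering viability or raising caspase 3/7 activity in vorinostat-treated resistant cells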 (primary screen). System: human HCT116-VR colon cancer cells, selected for vorinostat resistance. Knock-down reagent: siRNA pool against human genes, 40 nM siRNA pool. Time to read-out: vorinostat for 24 h, read-out about 72 h after transfection. Conditions: vorinostat at 2.5 µM final. Measurement: 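Two measures, CellTiter-Fluor viability and luminescent caspase 3/7 activity, each as fold change against same-plate mock wells, mean of duplicates, then screen-wide robust z-score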. Direction: viability robust z-score: higher = more viable cells than screen typical; caspase robust z-score: higher = more caspase 3/7 activity than screen typical. Active means: 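a knock-down is a hit when classed RV1 or RV2 for lowered viability, or CA1 or CA2 for caspase activation; those lethal without drug were dropped; hits were retested singly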.
This is a random part of about 18,000 reagents tested. Of all reagents, 450 (2.5%) got an active call. 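Single biological run; no consistent viability z cut-off exists, so the class columns, not z-scores, define the calls.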 No sequences are given here.

Depletion of SEPHS1 gave: viability hit class no change; caspase hit class CA1 (caspase activation); viability robust z-score 0.72; caspase robust z-score 5.29; active.
With knock-down of SRPK1, the screen gave viability hit class no change; caspase hit class no change; viability robust z-score -1.36; caspase robust z-score 0.04; inactive.
Silencing of PKDREJ gave: viability hit class no change; caspase hit class no change; viability robust z-score 0.32; caspase robust z-score -0.47; inactive.
TOMM7 scored viability hit class no change; caspase hit class no change; viability robust z-score -0.16; caspase robust z-score -0.78; inactive.
For MYOF, the entry reads viability hit class no change; caspase hit class no change; viability robust z-score -0.26; caspase robust z-score 0.62; inactive.
After knock-down of TIGD7, the screen gave viability hit class no change; caspase hit class no change; viability robust z-score 0.41; caspase robust z-score -0.08; inactive.
Knock-down of TENM2 came out at: viability hit class no change; caspase hit class no change; viability robust z-score -0.42; caspase robust z-score 0.48; inactive.
With knock-down of PLEKHG5, the record shows viability hit class no change; caspase hit class no change; viability robust z-score 0.55; caspase robust z-score 1.01; inactive.
With knock-down of AKR1C4, the record shows viability hit class no change; caspase hit class no change; viability robust z-score 0.34; caspase robust z-score 0.78; inactive.
Depletion of SNX20 came out at: viability hit class no change; caspase hit class no change; viability robust z-score 0.08; caspase robust z-score -0.6; inactive.

3 successive entries already listed, quoted:
TOMM7: viability hit class = no change; caspase hit class = no change; viability robust z-score = -0.16; caspase robust z-score = -0.78; outcome = inactive
MYOF: viability hit class = no change; caspase hit class = no change; viability robust z-score = -0.26; caspase robust z-score = 0.62; outcome = inactive
TIGD7: viability hit class = no change; caspase hit class = no change; viability robust z-score = 0.41; caspase robust z-score = -0.08; outcome = inactive

Additional results:
Against HSP90B1 the deposit lists viability hit class no change; caspase hit class no change; viability robust z-score 0.08; caspase robust z-score 1.04; inactive.
With knock-down of GNAI1 the results were viability hit class no change; caspase hit class no change; viability robust z-score 0.54; caspase robust z-score -0.25; inactive.
After knock-down of NEFL the results were viability hit class no change; caspase hit class no change; viability robust z-score 0.86; caspase robust z-score 2.82; inactive.
Silencing of FKBP9 came out at: viability hit class no change; caspase hit class no change; viability robust z-score 0.12; caspase robust z-score -0.75; inactive.
CCDC63 showed viability hit class no change; caspase hit class no change; viability robust z-score 0.76; caspase robust z-score 0.36; inactive.
Knock-down of TMTC4 resulted in: viability hit class no change; caspase hit class no change; viability robust z-score -1.27; caspase robust z-score 0.36; inactive.
Silencing of UBXN8 gave: viability hit class no change; caspase hit class no change; viability robust z-score 0.08; caspase robust z-score 1.12; inactive.
After knock-down of SNX19 the results were viability hit class no change; caspase hit class no change; viability robust z-score -0.26; caspase robust z-score -0.45; inactive.
Against CLEC6A the deposit lists viability hit class no change; caspase hit class no change; viability robust z-score 0.24; caspase robust z-score -0.52; inactive.
NDUFA12 showed viability hit class no change; caspase hit class no change; viability robust z-score 0.5; caspase robust z-score 0.46; inactive.
MOV10L1 scored viability hit class no change; caspase hit class no change; viability robust z-score 0.04; caspase robust z-score 0.64; inactive.
